Reference: patent publication US6783947B1, “Protecting groups for biological labeling” (Dade Behring Marburg GmbH, priority 1999, dated 2004)
Where a name gives a salt, the structure may show the parent alone.

Test: LOCI homocysteine assay, two-reagent protocol
Experimental: A 50 μL mixture of hcy-ABA-sensitizer beads (0.1 mg/ml) and 2 mM TCEP and 5 mM CABA-phosphate is added to 5 μL hcy serum calibrator in a reaction cuvette, followed by the addition of 100 μL assay buffer. The mixture is incubated for 417 sec. Then, a 50 μL mixture of Ab-coated acceptor beads (0.5 mg/ml) and alkaline phosphatase (1 mg/ml) is added, followed by 45 μL assay buffer. Following incubation for 157 sec, the sample is read as in the three-reagent standard protocol.
A LOCI homocysteine assay is performed by the automated LOCI Tecan instrument. The reagents and serum samples are kept at 4° C. on this instrument, but the assay buffer and reaction cuvettes are kept at 37° C. The assay is performed at 37° C., and the three-reagent protocol is used, as described herein, while the two-reagent assay protocol is also used in subsequent work with CABA-phosphate as an alternate derivatizing reagent.
An enol phosphate derivative of CABA is synthesized. […] Therefore, it has the potential for a two-component assay. In the two-reagent protocol, reagent-1 (R1) is a mixture of hcy labeled sensitizer beads at 50 μg/ml, 2 mM TCEP, and 5 mM CABA-phosphate in assay buffer; Reagent-2 (R-2) is Ab-coated acceptor beads at 0.1 mg/ml mixed with alkaline phosphatase at 1 mg/ml in assay buffer. In this protocol, 50 μl of R1, 5-10 μl of sample and 50 μl of assay buffer are mixed and incubated for 7 min at 37° C. (step 1), then 50 μl of R2 and 100 μl of assay buffer are added. The reaction mixture is incubated further for 3 minutes. The LOCI reading is performed as described above. The standard curve of hcy serum calibrators using CABA-phosphate as derivatizing agent and the two-reagent protocol is determined (not shown). Over 60% signal modulation is obtained using 2% serum sample.
The same three-reagent protocol used with BABA, as well as with CABA-phosphate as derivatizing agent, is used in this correlation study. Similar results are obtained with either BABA or CABA-phosphate as the derivatizing agent using the three-reagent protocol by LOCI as shown in Table 4-a. […]

## O=C(O)c1ccc(/C(=C/Cl)OP(=O)(O)O)cc1 [CABA-phosphate, 4-(chloroacetyl)benzoate enol-phosphate sodium salt]
2% serum sample, CABA-phosphate as derivatizing agent
  signal modulation, standard curve of hcy serum calibrators: Over 60%
50 samples (2%)
  r value, LOCI vs. HPLC: 0.960
  slope, LOCI vs. HPLC: 1.239
